US5132432A, “Chemically reactive pyrenyloxy sulfonic acid dyes” (Molecular Probes, Inc., priority 1989, dated 1992)
Where “and” joins values, the source holds several entries; their conditions need not be identical. Identical values can stand only once. Entries after “also recorded” stand apart in the source; their conditions may differ. Like-named read-outs stand apart in the source and are kept apart here.

Assay: Chemical reactivity with model compounds (TLC or HPLC)

## O=C(CCl)NCCNC(=O)COc1cc(S(=O)(=O)O)c2ccc3c(S(=O)(=O)O)cc(S(=O)(=O)O)c4ccc1c2c43 [Compound 6]
  reaction with 2-mercaptoethanol: 2-mercaptoethanol reacts with 6 and 7

## O=C(CI)NCCCCCNC(=O)COc1cc(S(=O)(=O)[O-])c2ccc3c(S(=O)(=O)[O-])cc(S(=O)(=O)[O-])c4ccc1c2c43.[Na+].[Na+].[Na+] [Compound 7, N-(1,3,6-Trisulfo-8-pyrenyloxyacetyl)-N'-(iodoacetyl)-1,5-pentanediamine, trisodium salt]
Trisodium salt
  reaction with 2-mercaptoethanol: complete conversion of 7 to a new product in the presence of 2-mercaptoethanol and 2-mercaptoethanol reacts with 6 and 7

## [N-]=[N+]=NC(=O)COc1cc(S(=O)(=O)[O-])c2ccc3c(S(=O)(=O)[O-])cc(S(=O)(=O)[O-])c4ccc1c2c43.[Na+].[Na+].[Na+] [Compound 9, 1,3,6-Trisulfo-8-pyrenyloxyacetyl azide, trisodium salt]
  reaction with 1-aminobutane: 1-aminobutane reacts to form a new product with 9
To give 5
  reaction with aminodextran: aminodextran reacts with 9 to give 5

## NNC(=O)COc1cc(S(=O)(=O)[O-])c2ccc3c(S(=O)(=O)[O-])cc(S(=O)(=O)[O-])c4ccc1c2c43.[Na+].[Na+].[Na+] [Compound 12, 1,3,6-Trisulfo-8-pyrenyloxyacethydrazide, trisodium salt]
Trisodium salt
  reaction with acetone: reacted to form a new product in the presence of acetone; also recorded: acetone reacts with 12
